Results: publication PMC10014099
Results are given in words; binding and its absence hold for the method and conditions named. In cells and extracts the contact can be indirect. Some binding calls cover weakened binding; strength is not graded here. Where a sequence is shown, tags or fusion partners need not be part of it.

By UniProt entry, the sequences of proteins in these tests, tags left out.
UniProt P0DMV8: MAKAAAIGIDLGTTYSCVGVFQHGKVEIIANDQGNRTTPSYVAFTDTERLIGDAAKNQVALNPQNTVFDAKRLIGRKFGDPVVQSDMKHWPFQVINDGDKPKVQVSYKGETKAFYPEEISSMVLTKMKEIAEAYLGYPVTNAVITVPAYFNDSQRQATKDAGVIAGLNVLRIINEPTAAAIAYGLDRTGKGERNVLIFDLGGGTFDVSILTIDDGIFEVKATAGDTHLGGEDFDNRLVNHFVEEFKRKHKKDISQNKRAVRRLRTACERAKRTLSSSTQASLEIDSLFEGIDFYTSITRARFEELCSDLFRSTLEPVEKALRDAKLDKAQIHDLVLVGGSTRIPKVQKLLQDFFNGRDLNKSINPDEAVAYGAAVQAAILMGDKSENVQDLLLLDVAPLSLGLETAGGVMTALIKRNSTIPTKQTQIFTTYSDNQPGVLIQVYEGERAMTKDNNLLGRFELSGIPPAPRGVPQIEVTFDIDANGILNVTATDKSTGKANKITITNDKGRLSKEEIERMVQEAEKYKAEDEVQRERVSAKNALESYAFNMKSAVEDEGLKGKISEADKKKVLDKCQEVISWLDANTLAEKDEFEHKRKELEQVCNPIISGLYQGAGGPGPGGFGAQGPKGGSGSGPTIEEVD

Target: T1, Flag-Plek2 (UniProt Q9WV52)
T1 sequence: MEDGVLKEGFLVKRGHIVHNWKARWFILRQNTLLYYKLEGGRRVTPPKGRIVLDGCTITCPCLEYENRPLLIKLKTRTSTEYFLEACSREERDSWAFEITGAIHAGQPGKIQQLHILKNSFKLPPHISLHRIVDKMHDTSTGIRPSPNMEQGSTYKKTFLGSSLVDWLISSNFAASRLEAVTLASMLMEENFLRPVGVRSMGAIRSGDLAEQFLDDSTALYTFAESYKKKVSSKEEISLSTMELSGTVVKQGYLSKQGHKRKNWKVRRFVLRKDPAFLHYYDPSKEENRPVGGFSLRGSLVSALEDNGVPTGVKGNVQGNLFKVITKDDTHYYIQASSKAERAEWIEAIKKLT
Assay: co-IP; IP with anti-FLAG magnetic beads from lysate of 293T cells transfected with Flag-Plek2, Western blot; also after 20 uM NUP-17d for 2 hours

Question: Which binding does the source give for Hsp72 (from UniProt P0DMV8 1-641) here?
Answer: binds
